Data published in PMC7819943, “Rice protein-binding microarrays: a tool to detect cis-acting elements near promoter regions in rice”.
This is one part of the list.

Amino acid sequences for entries named in this document (tags omitted).
UniProt Q0JBA9, entry or part of it: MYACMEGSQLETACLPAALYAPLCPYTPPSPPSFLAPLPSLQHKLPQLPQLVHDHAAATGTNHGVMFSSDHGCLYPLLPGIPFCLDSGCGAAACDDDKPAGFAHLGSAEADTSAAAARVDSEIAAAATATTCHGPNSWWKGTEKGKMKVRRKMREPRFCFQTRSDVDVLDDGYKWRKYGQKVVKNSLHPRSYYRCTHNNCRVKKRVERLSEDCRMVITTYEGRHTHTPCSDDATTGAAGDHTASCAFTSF

The sequences below were run against OsWRKY34 (Oryza sativa, UniProt Q0JBA9 1-250) (assay: protein-binding microarray (RPBM); PBS, 2% BSA, 51.3 ng/ul salmon testes DNA, 50 uM zinc acetate, 200 nM TF, 25 C, 1 h; high values mean tight binding). Conditions: protein: recombinant; tags: N-terminal polyhistidine and DsRed monomer fusion (pET32a); label: CyDye5-dUTP incorporated in the synthesized complementary strand; 3' TTTTT single-stranded linker to array surface; dsDNA, one strand shown.
Summary of the method: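 A custom Agilent array was converted to double-stranded form by primer extension with Cy5-dUTP and blocked with 2% BSA. Protein at 200 nM in PBS with 2% BSA, salmon testes DNA and 50 µM zinc acetate was applied for 1 h at 25 °C, followed by washing. The proteins were polyhistidine–DsRed N-terminal fusions of transcription factors, expressed in E. coli BL21-CodonPlus and Ni–NTA-purified. The binding signal is per-feature fluorescence intensity (arbitrary units) from an Axon 4000B scanner.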

Sequence	binding signal
TACAGCCTTACTACTTCTTTATAATCTCCACGAAAGAACACGGAGTCACCTAGTGCAG	8060 fluorescence intensity (a.u.)
TGCTTCGCATTTTGTTGCGTTGTTGCTGTTTTTTTTTTCGCGGAGTCACCTAGTGCAG	8320 fluorescence intensity (a.u.)
TTAGTTAATCATTGTTGTTCTATATATCTTTTCTTTATTTCGGAGTCACCTAGTGCAG	8580 fluorescence intensity (a.u.)
ACACATCCTATTACAGAATCTGGATATACATCTGTCCAAACGGAGTCACCTAGTGCAG	8110 fluorescence intensity (a.u.)
AAAATCTTGGTCTCAAGCCTTCCATGATGCTGTCATATCTCGGAGTCACCTAGTGCAG	9660 fluorescence intensity (a.u.)
AACCCACCTCTTTCGTTTTCCGCGCGTACGCTTTTCAAACCGGAGTCACCTAGTGCAG	8710 fluorescence intensity (a.u.)
TCGACGATTCTCAGCCCAGAAAGCCTGCTACAGTACTACACGGAGTCACCTAGTGCAG	8280 fluorescence intensity (a.u.)
TCCTATCGCTCGATCGCCTCGCCTCGCGTCCCCGCGATTTCGGAGTCACCTAGTGCAG	10400 fluorescence intensity (a.u.)
CTCTCGATCCGGCTTCTTTCAGCTTACGTCCCCGTCACCACGGAGTCACCTAGTGCAG	10600 fluorescence intensity (a.u.)
GCAGTTTGCTTTTGCTCCACCCACCACCACCGCTGCTTCCCGGAGTCACCTAGTGCAG	11400 fluorescence intensity (a.u.)
TTATTTTCCTAATGCACTCATCTTTGACTTAACTGCACCCCGGAGTCACCTAGTGCAG	10800 fluorescence intensity (a.u.)
ACGTGTAACTACTGTGTTTGCAGATATGGATGGGTTGGTTCGGAGTCACCTAGTGCAG	10300 fluorescence intensity (a.u.)
ATGTTTAATTCATGGGTGCATTCTTGTTTCTTAGGGATCACGGAGTCACCTAGTGCAG	8850 fluorescence intensity (a.u.)
AAACCATGTCCTACAGCTACCTGTTTTGATCTTCTTGGTTCGGAGTCACCTAGTGCAG	11200 fluorescence intensity (a.u.)
TCTTCCTATTACCTCTCTCATCCTCTCCATCTCTCTAGTTCGGAGTCACCTAGTGCAG	8400 fluorescence intensity (a.u.)
GCCTGAACCTGTCTAAATCCTTTGTCTCCACATCCATCCACGGAGTCACCTAGTGCAG	9080 fluorescence intensity (a.u.)
CCGATATGACACCTAAAAATTTTCATTTCAGCAACCCTTACGGAGTCACCTAGTGCAG	8350 fluorescence intensity (a.u.)
GTAATCTATGAGTATACCTTTCCTAATCGTTCACGCCCTTCGGAGTCACCTAGTGCAG	8540 fluorescence intensity (a.u.)
GTGCTCTCTGCTGGCTGCGACGCCATATATGCCTTTCTTCCGGAGTCACCTAGTGCAG	8720 fluorescence intensity (a.u.)
ATGCGTGGGTTTTTCTTGTCCGTCTTAGTTCAAAACGGCCCGGAGTCACCTAGTGCAG	13600 fluorescence intensity (a.u.)
TATGGTAGTGTTCTTGCTGTTTCCCGTAAAACAAGGTTCCCGGAGTCACCTAGTGCAG	8230 fluorescence intensity (a.u.)

Sequence	binding signal
GAAGTGACCCGCACCCTTCTTTGCGACGAACCTGTCACTGCGGAGTCACCTAGTGCAG	8030 fluorescence intensity (a.u.)
ATATTTTCCGCCTACCCTGTACGCACGTTTATATACACAACGGAGTCACCTAGTGCAG	9400 fluorescence intensity (a.u.)
TTATCTCAGCCGCTTTGTTTGTTTCTTTCTTTCTTTCTCCCGGAGTCACCTAGTGCAG	11100 fluorescence intensity (a.u.)
CATGCGTACGAGATTAGTTCCCATCTCCTTTATCCAAACTCGGAGTCACCTAGTGCAG	8260 fluorescence intensity (a.u.)
TCTTCCTTTTCTTCACTTGCGGTTTCTTTCTTTCTTTTTACGGAGTCACCTAGTGCAG	9210 fluorescence intensity (a.u.)
CTACCAACCATCTGCTTCTCATAATCTTACACTCCCCAAACGGAGTCACCTAGTGCAG	8340 fluorescence intensity (a.u.)
TCACCGACGATAGATCATTGACCTTTTGACCAAATGACCTCGGAGTCACCTAGTGCAG	8550 fluorescence intensity (a.u.)
ACATGTTTGACCATTCGTCTTATTTAAAAATTTTATGCAACGGAGTCACCTAGTGCAG	8030 fluorescence intensity (a.u.)
CAGGTTCACCATATTAATACCTACTATCCGTTATCAATTTCGGAGTCACCTAGTGCAG	9720 fluorescence intensity (a.u.)
TAGGCATATAATTTTACATATTTCACAACAGTTTTTGAATCGGAGTCACCTAGTGCAG	9430 fluorescence intensity (a.u.)
TTATTTTTTATTCTGAATTTTAATTAATCTCGTATTGGGTCGGAGTCACCTAGTGCAG	8670 fluorescence intensity (a.u.)
GGCAATGTACAATTAGTTCTAATATCGTAATCATCGATGTCGGAGTCACCTAGTGCAG	8250 fluorescence intensity (a.u.)
AAATAAGACGAACGATCAAACATAATTAAAAAAGTCAACGCGGAGTCACCTAGTGCAG	9160 fluorescence intensity (a.u.)
GGCGAGCATCCGTTTGACATTTCTTGTCTTCATCAGTTTTCGGAGTCACCTAGTGCAG	10700 fluorescence intensity (a.u.)
ACATCTCCCTTTCTATTATACTGTTGGTATTCAATATTTCCGGAGTCACCTAGTGCAG	8450 fluorescence intensity (a.u.)
CGCTCCGACGACGACAAGCTGCCACTGCTCACTGCTCTCTCGGAGTCACCTAGTGCAG	8260 fluorescence intensity (a.u.)
TTATTGTATTAATGTTCCTTTTATCCGTACCATTTCCGACCGGAGTCACCTAGTGCAG	10600 fluorescence intensity (a.u.)
GGGGAGGTCAGTACATGGTTCAAAAGCACTATGGAGTTGCCGGAGTCACCTAGTGCAG	8100 fluorescence intensity (a.u.)
ACCCATCCATCGCCAGCCATGCACACCCTCGCTCTGACGACGGAGTCACCTAGTGCAG	8640 fluorescence intensity (a.u.)
TTACAAACAAAAACTCAAAATCCCTTATATTTTGGGACAGCGGAGTCACCTAGTGCAG	64700 fluorescence intensity (a.u.)
CGGACCGGACCGGACCACCCGCTGCCACTATCAACCACCACGGAGTCACCTAGTGCAG	10300 fluorescence intensity (a.u.)
